# Experimental data from paper PMC5127583.
# Chains of the proteins cited; added tags and fusions are not shown.
# UniProt Q3URU2: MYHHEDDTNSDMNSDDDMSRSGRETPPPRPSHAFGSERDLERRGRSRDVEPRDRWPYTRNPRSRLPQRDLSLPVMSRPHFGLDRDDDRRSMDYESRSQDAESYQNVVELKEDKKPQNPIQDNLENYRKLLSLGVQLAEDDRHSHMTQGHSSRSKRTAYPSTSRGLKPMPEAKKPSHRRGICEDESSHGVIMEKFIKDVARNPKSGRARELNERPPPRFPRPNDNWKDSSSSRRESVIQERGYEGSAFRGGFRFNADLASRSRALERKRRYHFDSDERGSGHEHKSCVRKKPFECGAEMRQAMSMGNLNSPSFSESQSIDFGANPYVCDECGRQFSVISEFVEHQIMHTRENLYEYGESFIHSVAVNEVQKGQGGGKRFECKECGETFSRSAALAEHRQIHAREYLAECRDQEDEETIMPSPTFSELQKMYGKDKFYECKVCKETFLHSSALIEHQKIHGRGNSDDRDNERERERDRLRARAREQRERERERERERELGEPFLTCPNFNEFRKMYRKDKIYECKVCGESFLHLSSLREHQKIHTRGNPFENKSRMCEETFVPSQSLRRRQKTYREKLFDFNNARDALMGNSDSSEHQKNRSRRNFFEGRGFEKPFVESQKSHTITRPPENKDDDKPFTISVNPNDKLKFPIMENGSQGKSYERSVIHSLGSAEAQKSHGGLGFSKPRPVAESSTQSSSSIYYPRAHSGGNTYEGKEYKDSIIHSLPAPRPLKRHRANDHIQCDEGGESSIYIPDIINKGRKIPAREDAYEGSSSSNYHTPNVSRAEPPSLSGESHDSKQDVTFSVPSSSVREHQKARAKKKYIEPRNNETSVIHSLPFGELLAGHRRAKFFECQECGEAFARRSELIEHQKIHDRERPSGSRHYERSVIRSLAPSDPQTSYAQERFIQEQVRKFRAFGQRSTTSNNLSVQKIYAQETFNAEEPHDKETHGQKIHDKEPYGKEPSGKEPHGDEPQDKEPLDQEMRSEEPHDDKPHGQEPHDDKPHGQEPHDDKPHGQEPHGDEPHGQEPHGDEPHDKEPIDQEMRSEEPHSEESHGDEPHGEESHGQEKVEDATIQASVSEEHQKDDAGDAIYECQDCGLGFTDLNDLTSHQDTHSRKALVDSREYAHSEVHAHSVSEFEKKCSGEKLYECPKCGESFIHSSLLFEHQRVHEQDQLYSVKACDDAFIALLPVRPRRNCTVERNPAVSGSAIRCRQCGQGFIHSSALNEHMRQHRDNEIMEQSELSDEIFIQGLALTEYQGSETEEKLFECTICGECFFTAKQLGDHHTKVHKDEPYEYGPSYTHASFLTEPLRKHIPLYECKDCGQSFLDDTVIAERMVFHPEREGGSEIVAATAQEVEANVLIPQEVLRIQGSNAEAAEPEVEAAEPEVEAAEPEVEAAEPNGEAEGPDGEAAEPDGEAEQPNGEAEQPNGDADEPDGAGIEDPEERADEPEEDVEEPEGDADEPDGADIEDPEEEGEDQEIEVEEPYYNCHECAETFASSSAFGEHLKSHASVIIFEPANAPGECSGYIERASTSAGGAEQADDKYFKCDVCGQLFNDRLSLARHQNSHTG
# UniProt Q13263: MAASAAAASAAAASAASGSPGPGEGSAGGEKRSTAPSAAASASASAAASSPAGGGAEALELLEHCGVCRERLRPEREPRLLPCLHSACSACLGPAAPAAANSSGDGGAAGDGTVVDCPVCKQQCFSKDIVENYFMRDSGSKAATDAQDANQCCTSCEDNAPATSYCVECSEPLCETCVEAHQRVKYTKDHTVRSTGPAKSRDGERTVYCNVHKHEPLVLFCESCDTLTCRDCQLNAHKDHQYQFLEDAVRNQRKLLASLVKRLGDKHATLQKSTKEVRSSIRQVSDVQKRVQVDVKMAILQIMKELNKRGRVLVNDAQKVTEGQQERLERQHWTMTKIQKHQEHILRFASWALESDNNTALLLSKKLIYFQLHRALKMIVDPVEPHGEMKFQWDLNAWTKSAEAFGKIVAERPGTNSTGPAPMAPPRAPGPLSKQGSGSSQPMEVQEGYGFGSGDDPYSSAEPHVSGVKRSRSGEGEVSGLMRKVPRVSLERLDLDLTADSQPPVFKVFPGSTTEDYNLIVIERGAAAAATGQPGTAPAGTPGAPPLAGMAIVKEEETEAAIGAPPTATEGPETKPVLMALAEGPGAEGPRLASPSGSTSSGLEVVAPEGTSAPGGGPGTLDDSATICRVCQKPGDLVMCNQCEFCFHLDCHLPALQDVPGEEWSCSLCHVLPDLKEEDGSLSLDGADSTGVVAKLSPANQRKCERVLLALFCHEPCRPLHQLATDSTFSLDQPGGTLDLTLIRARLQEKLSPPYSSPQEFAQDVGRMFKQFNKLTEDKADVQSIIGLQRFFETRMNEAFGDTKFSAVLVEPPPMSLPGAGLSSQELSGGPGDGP
# Results are given in words; binding and its absence hold for the method and conditions named. In cells and extracts the contact can be indirect. Some entries that bind do so weakly or less than the wild type.
# Biological target: PEG3-FL, the full-length mouse PEG3 with the FLAG tag at the C-terminus (mouse) (UniProt Q3URU2)
# Test: co-IP; Neuro2a cells co-transfected with HA-KAP1 and PEG3-FL-FLAG or PEG3-Del(Ex7)-FLAG; Pierce IP Lysis Buffer; immunoprecipitated with anti-FLAG or anti-HA antibody; western blot with anti-KAP1 or anti-HA antibody
substance,measurement,value
"human KAP1, full-length, with 3 HA tags at the N-terminus (pKH3-TRIM28) (from UniProt Q13263 1-835)",binding,binds
